Measured values reported in PMC4644952.
No constants are given. Whether binding was seen depends on the method and setting. For some of these results: Binding can be weak; no strength is given. Sequences can lack the tags named with a protein. For some of these results: In cells and extracts the contact can be indirect.

What was measured:
[1] = target: T1, N-terminally glutathione S transferase (GST)-tagged FKBP6 (UniProt O75344); experiment: pull-down; purified GST-FKBP6 or GST mixed with NS5A-His at an equal molar ratio, 4 °C for 2 h, glutathione Sepharose 4B beads, washed with PBS; Western blotting with anti-6x His antibody; both purified
T1 sequence: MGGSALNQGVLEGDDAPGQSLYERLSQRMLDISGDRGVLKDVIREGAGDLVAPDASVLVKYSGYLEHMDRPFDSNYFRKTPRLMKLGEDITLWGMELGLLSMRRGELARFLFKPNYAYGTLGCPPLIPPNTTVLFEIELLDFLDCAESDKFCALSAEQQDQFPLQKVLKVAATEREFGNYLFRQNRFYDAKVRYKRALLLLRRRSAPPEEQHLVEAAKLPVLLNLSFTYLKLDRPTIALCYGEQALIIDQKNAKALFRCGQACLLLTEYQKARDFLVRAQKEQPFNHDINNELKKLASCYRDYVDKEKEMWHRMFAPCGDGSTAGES

[2] = target: T2, FLAG-tagged FKBP6 (UniProt O75344); experiment: co-IP; FLAG- and HA-tagged proteins co-expressed in 293T cells, lysed 48 h post-transfection; immunoprecipitation with anti-FLAG or anti-HA antibody, Western blotting
T2 sequence: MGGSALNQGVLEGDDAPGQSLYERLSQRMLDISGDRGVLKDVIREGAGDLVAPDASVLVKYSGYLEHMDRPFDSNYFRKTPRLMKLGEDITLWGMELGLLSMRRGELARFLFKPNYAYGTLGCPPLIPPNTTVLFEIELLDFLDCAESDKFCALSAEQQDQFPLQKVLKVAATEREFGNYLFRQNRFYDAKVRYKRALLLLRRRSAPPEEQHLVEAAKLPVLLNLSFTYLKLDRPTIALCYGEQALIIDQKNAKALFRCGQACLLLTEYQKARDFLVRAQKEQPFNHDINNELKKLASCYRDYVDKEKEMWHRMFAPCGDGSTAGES

[3] = target: FLAG-tagged NS5A (N strain, amplified from the N replicon cell line) (hepatitis C virus genotype 1b, strain N); experiment: as above

In the case of “C-terminally Hisx6-tagged NS5A lacking the membrane-anchoring region (domain or fragment)”, the binding [1] is reported as “binds”.

With “N-terminally HA-tagged NS5A region spanning from amino acid residue 1 to 125 (from UniProt Q9WMX2) (domain or fragment)” the binding [2] was “binds”.

B1: HA-tagged FKBP4 (protein, UniProt Q02790 1-459)
chain: MTAEEMKATESGAQSAPLPMEGVDISPKQDEGVLKVIKREGTGTEMPMIGDRVFVHYTGWLLDGTKFDSSLDRKDKFSFDLGKGEVIKAWDIAIATMKVGEVCHITCKPEYAYGSAGSPPKIPPNATLVFEVELFEFKGEDLTEEEDGGIIRRIQTRGEGYAKPNEGAIVEVALEGYYKDKLFDQRELRFEIGEGENLDLPYGLERAIQRMEKGEHSIVYLKPSYAFGSVGKEKFQIPPNAELKYELHLKSFEKAKESWEMNSEEKLEQSTIVKERGTVYFKEGKYKQALLQYKKIVSWLEYESSFSNEEAQKAQALRLASHLNLAMCHLKLQAFSAAIESCNKALELDSNNEKGLFRRGEAHLAVNDFELARADFQKVLQLYPNNKAAKTQLAVCQQRIRRQLAREKKLYANMFERLAEEENKAKAEASSGDHPTDTEMKEEQKSNTAGSQSQVETEA
In the case of B1, the binding [3] is reported as “no binding”.

B2: HA-tagged FKBP5 (protein, UniProt Q13451 1-457)
chain: MTTDEGAKNNEESPTATVAEQGEDITSKKDRGVLKIVKRVGNGEETPMIGDKVYVHYKGKLSNGKKFDSSHDRNEPFVFSLGKGQVIKAWDIGVATMKKGEICHLLCKPEYAYGSAGSLPKIPSNATLFFEIELLDFKGEDLFEDGGIIRRTKRKGEGYSNPNEGATVEIHLEGRCGGRMFDCRDVAFTVGEGEDHDIPIGIDKALEKMQREEQCILYLGPRYGFGEAGKPKFGIEPNAELIYEVTLKSFEKAKESWEMDTKEKLEQAAIVKEKGTVYFKGGKYMQAVIQYGKIVSWLEMEYGLSEKESKASESFLLAAFLNLAMCYLKLREYTKAVECCDKALGLDSANEKGLYRRGEAQLLMNEFESAKGDFEKVLEVNPQNKAARLQISMCQKKAKEHNERDRRIYANMFKKFAEQDAKEEANKAMGKKTSEGVTNEKGTDSQAMEEEKPEGHV
For B2, the binding [3] was “no binding”.
